Compound in the assay: CC1Cc2ccccc2N1C(=O)C1CCCN(C1)C(=O)CCl (mixture of isomers) [TRIM25 ligand 11 (diastereomer mixture)]
As to the kind of experiment: probe-labelled cysteine peptide fold change vs DMSO (competition) (log2 fold change); higher = less target engagement (more negative = stronger competition). The following applies: THP-1, incubation time: 4 h.

This is one part of the list.
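Note: competitive chemoproteomic profiling in live THP-1 cells with an iodoacetamide desthiobiotin (IA-DTB) probe, comparing probe-labelled peptide intensities in compound-treated cells against DMSO-treated controls.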

As for “NANP_Q8TBE9_49_EEAEIICDK (UniProt Q8TBE9)”, the “probe-labelled cysteine peptide fold change” value was determined as 0.0923 (10 µM) and 0.0345 (50 µM).
For the target “NCAM2_O15394_380_YDCEAASR (UniProt O15394)”, the “probe-labelled cysteine peptide fold change” value is, setting by setting: (10 µM) 0.108; (50 µM) 0.393.
“NAGA_P17050_42_CNINCDEDPK (UniProt P17050)”: the “probe-labelled cysteine peptide fold change” value reads like this: (10 µM) 0.0302; (50 µM) 0.201.
For the target “MYO1G_B0I1T2_942_GQDDLVVCLHR (UniProt B0I1T2)”, the “probe-labelled cysteine peptide fold change” value is -0.214 (10 µM) and 0.0648 (50 µM).
The like results for “NCAPG2_Q86XI2_826_AFGLHCR (UniProt Q86XI2)” were, in that order, 0.018 and 0.226.
The like results for “NAE1_Q13564_460_SCLTGFLQEYGLSVMVK (UniProt Q13564)” were, in that order, 0.102 and 0.015.
Turning to “NACC1_Q96RE7_178_VKTEQQESDSVQCMPVAK (UniProt Q96RE7)”, the “probe-labelled cysteine peptide fold change” value was -0.28 (10 µM) and -0.426 (50 µM).
The like results for “NCAPG_Q9BPX3_667_TLHCEGTEINSDDEQESK (UniProt Q9BPX3)” were, in that order, -0.0392 and -0.107.
On the same counts, the results for “MYL6_P60660-2_138_MTEEEVEMLVAGHEDSNGCINYEELVR (UniProt P60660)” are -0.0834 and -0.191.
On the same counts, the results for “MYOF_Q9NZM1_1131_HSATTVFGANTPIVSCNFDR (UniProt Q9NZM1)” are -0.198 and -0.0984.
For “MYO18A_Q92614_508_TTSCQHLVQYLATIAGISGNK (UniProt Q92614)”, the “probe-labelled cysteine peptide fold change” value is 0.0219 (10 µM) and 0.0521 (50 µM).
On the same counts, the results for “NAT10_Q9H0A0_194_FILSLASCK (UniProt Q9H0A0)” are 0.0363 and 0.0704.
On the same counts, the results for “MYO6_Q9UM54_1236_QMELHPDKPPILLVAGKDDMEMCELNLEETGLTR (UniProt Q9UM54)” are -0.0479 and -0.139.
The like results for “NCAPG2_Q86XI2_776_NRECLLSAPR (UniProt Q86XI2)” were, in that order, -0.0525 and -0.00285.

The values above are taken from the supplement of paper PMC12067093, “Discovery and optimisation of a covalent ligand for TRIM25 and its application to targeted protein ubiquitination” (Chemical Science, 2025).
